Columns and labels:
[1] = test system: NHDF (normal human dermal fibroblasts); assay: Determination of EC50 values, MTS assay, NHDF; assay type: cell-based; settings: four-parametric Hill fit of the effect–dose curve
Procedure: (§1) NHDFs were purchased from Lonza Group Ltd.—Lonza Verviers (Verviers, Belgium), and the human malignant melanoma (Me45) cell line was obtained from the Maria Skłodowska-Curie Memorial Cancer Center and National Institute of Oncology Branch Gliwice, Poland. […] During the culturing periods, cells were passaged before confluency reached 80% in culture flasks and washed regularly with PBS.
(§2) The EC50 values of genistein and its derivatives for both cell lines were determined using the MTS assay (Cell Titer 96 AQueous One Solution Cell Proliferation Assay, Promega, Madison, WI, USA). Cells were seeded in 96-well plates (5 × 10^3 cells/well) and incubated for 24 h at 37 °C in 5% CO2. Subsequently, the cells were treated with twelve concentrations of each compound ranging from 1–100 µM for 48 h at 37 °C in 5% CO2. Afterwards, the medium, including the investigated compounds, was removed from all wells and replaced with PBS. In total, 20 µL of MTS was added to each well. Plates were then incubated for 2 h at 37 °C in 5% CO2. The absorbance was measured at λ = 490 nm using an Epoch microplate reader (BioTek, Winooski, VT, USA). EC50 values were calculated using Matlab software (Matlab R2022a, MathWorks, Natick, MA, USA).

[2] = test system: Me45 (human malignant melanoma cell line); assay: Determination of EC50 values, MTS assay, Me45; assay type: cell-based; settings: four-parametric Hill fit of the effect–dose curve
Procedure: as §1, §2

Structure (SMILES) | Hill Slope [1] | Hill Slope [2]
CCCCCCCCCCCC(=O)Oc1ccc(-c2coc3cc(O)cc(O)c3c2=O)cc1 [4′-L-Gen, 4′-genistein dodecanate] | 0.5275 | 3.0014
CCCCCOC(=O)Oc1cc(O)c2c(=O)c(-c3ccc(O)cc3)coc2c1 [Compound W5-Gen, n-pentyl-7-O-genistein carbonate] | 0.5870 | 3.1178
O=c1c(-c2ccc(O)cc2)coc2cc(O)cc(O)c12 [Gen, Genistein] | 0.7206 | 0.9270
O=C(OCc1ccccc1)Oc1cc(O)c2c(=O)c(-c3ccc(O)cc3)coc2c1 [WBn-Gen, bezyl-7-O-genistein carbonate] | 0.5911 | 2.0406
